In patent publication US20210032365A1 one finds binding data, which are given here for 4 molecules.

Sequences of proteins named here, by UniProt entry; tags and fusion partners are left off. A change or cut given only in a name is not applied to a line headed by its entry.
UniProt P09871: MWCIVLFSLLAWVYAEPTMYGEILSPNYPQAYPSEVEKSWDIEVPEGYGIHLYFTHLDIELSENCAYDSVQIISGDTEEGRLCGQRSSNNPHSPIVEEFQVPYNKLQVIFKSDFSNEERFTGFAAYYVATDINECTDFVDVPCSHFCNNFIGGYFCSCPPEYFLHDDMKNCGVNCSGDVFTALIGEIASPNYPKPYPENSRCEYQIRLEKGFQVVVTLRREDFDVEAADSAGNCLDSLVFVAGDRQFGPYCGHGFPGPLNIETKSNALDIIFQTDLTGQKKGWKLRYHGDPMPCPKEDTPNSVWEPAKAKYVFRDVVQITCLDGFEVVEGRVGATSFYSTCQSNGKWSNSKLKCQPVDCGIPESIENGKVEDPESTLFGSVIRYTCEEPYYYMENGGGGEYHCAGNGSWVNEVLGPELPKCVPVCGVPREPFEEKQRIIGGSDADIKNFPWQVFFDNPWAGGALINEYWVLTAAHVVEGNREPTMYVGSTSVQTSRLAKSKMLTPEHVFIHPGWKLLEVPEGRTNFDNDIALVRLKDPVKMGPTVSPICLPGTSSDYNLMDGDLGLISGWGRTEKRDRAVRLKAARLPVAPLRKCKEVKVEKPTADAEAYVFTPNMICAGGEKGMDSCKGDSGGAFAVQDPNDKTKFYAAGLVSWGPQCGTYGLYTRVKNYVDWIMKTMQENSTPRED

Where a chain is given by its changes, count along the chain named. Results are given in words; binding and its absence hold for the method and conditions named. Some results given as binding are weak or reduced against the parent protein; the word gives no strength.

The labels stand for the following.
B1: C1_IPN92H0026-SG4GK/IPN93L0031-SK1 (antibody, human IgG4 S228P, kappa, name in Kabat numbering, V domains shown)
VH: EVMLVESGGGLVKPGGSLRLSCAASGFTFSNYAMSWVRQAPGKGLEWVATISSGGSHTYYLDSVKHRFTISRDNSKDTLYLQMNSLRAEDTALYYCARLFTGYAMDYWGQGTLVTVSS
VL: QIVLTQSPATLSLSPGERATLSCTASSSVSSSYLHWYQQKPGKAPKLWIYSTSNLASGVPSRFSGSGSGTDYTLTISSLQPEDFATYYCHQYHRHHPITFGQGTKLEIKR
B2: C1_IPN92H0038-SG4GK/IPN93L0031-SK1 (antibody, human IgG4 S228P, kappa, name in Kabat numbering, V domains shown)
VH: B1 VH with Y103H
VL: B1 VL
B3: C1_IPN92H0033-SG4GK/IPN93L0031-SK1 (antibody, human IgG4 S228P, kappa, name in Kabat numbering, V domains shown)
VH: B1 VH with H66G, Y103H
VL: B1 VL
B4: C1_IPN009VH2-SG4GK/IPN93L0031-SK1 (antibody, human IgG4 S228P, kappa, name in Kabat numbering, V domains shown)
VH: B1 VH with H66G
VL: B1 VL

In the first experiment the target is human C1s (human) (UniProt P09871). The experiment in a line: SPR binding response vs parent; pH 5.8, 3 uM Ca.
Turning to B1, the binding entry is “binds”.
In the case of B2, the binding result is “binds”.
With B3, the binding result is “binds”.
Same read-out and setting: then B4, with “binds”.

For a further experiment the target is unchanged. The experiment in a line: SPR binding response vs parent; pH 5.8, 1.2 mM Ca. On the technique in general: Surface plasmon resonance follows binding to a sensor surface in real time, without labels.
Turning to B1, the binding entry was “binds”.
Still for that read-out and setting: then B2, with “binds”; and B3, with “binds”; and B4, with “binds”.

Another experiment has the same target. The experiment in a line: SPR binding response vs parent; pH 7.4, 1.2 mM Ca.
Consider B1, for which the binding result is “binds”.
On the same count and under the same terms, then B2, with “binds”; and B3, with “binds”.
For the molecule B4, the binding entry was “binds”.
